This is one part of the list.

Sequences of proteins named here, by UniProt entry; tags and fusion partners are left off.
UniProt Q0JBA9, entry or part of it: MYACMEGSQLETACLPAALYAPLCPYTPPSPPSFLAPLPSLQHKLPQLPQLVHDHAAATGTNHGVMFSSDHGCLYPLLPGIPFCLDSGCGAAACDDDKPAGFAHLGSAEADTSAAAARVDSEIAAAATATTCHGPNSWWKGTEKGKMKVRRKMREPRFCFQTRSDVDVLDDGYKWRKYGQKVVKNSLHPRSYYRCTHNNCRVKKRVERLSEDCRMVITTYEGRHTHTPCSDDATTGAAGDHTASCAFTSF

In the test the target is OsWRKY34 (Oryza sativa, UniProt Q0JBA9 1-250). Description: protein-binding microarray (RPBM); PBS, 2% BSA, 51.3 ng/ul salmon testes DNA, 50 uM zinc acetate, 200 nM TF, 25 C, 1 h; high values mean tight binding. The following applies: protein: recombinant; tags: N-terminal polyhistidine and DsRed monomer fusion (pET32a); label: CyDye5-dUTP incorporated in the synthesized complementary strand; 3' TTTTT single-stranded linker to array surface; dsDNA, one strand shown. The essentials: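 For the binding signal, per-feature fluorescence intensity was read in arbitrary units on an Axon 4000B scanner. Before scanning, a 2% BSA-blocked custom Agilent array made double-stranded with Cy5-dUTP was washed after 1 h at 25 °C with 200 nM protein and 50 µM zinc acetate. The proteins were Ni–NTA-purified transcription factors with N-terminal polyhistidine and DsRed fusions, expressed in E. coli BL21-CodonPlus.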
“CGTTAGTCCGTTTTGCTTTTCTTATTGTAGTTCAGTTCTTCGGAGTCACCTAGTGCAG”: the binding signal was 8350 fluorescence intensity (a.u.).
With “TGATTTTTTGCCCCTGCACTTCTCCTCCTTTTGCTCGGGGCGGAGTCACCTAGTGCAG”, the binding signal is 8830 fluorescence intensity (a.u.).
“ATAAGGGCAGATTTTGTCGTAAGCAATGATTGGATTTCACCGGAGTCACCTAGTGCAG”: the binding signal was 8580 fluorescence intensity (a.u.).
As to “AACTCCTTGGGTCCCAGCTTCACCGGCTTCGCCTCCTCTTCGGAGTCACCTAGTGCAG”, the binding signal was 8970 fluorescence intensity (a.u.).
Take “ATCGTCTTCCACCATGTACCACAAGTCCACAACACACTGGCGGAGTCACCTAGTGCAG”: the binding signal was 8610 fluorescence intensity (a.u.).
With “GCGGCCACCTCTCCCGCGCTCACCACCTGTTCGATCAAATCGGAGTCACCTAGTGCAG” the figure was 11500 fluorescence intensity (a.u.).
With “TTAGGGAAAAAAATGTTTGTATGTGTCAGTTCCGATTTCCCGGAGTCACCTAGTGCAG” the figure was 8880 fluorescence intensity (a.u.); with “TAACTCATGTGTACCTACACCCTCCTAAGTATCCTCTCAACGGAGTCACCTAGTGCAG”, 8310 fluorescence intensity (a.u.); with “TTGTGCTGGTTTTGGTTTTGGTTTTGGGTTGCATGTATGTCGGAGTCACCTAGTGCAG”, 9790 fluorescence intensity (a.u.).
For “TTACCCCGGTTTCTTCCGCGGTTTTTCCTCGTCCTGTGCACGGAGTCACCTAGTGCAG” the value was 9040 fluorescence intensity (a.u.).
With “TGGCAGGGTTGCATGGTTCTGGAGGGCGGGCTGTTATATTCGGAGTCACCTAGTGCAG”, the binding signal is 13500 fluorescence intensity (a.u.).
Take “AGCTCGAGCTCATTCGCATTCCGGAGGGGAGGGAGGGATGCGGAGTCACCTAGTGCAG”: the binding signal was 10400 fluorescence intensity (a.u.).
With “TTCTTCTGCTATTTGTTTCTCCTCCTATCTCCAAATCTAACGGAGTCACCTAGTGCAG” the figure was 8660 fluorescence intensity (a.u.); with “CCTGCGTTCTCTGCTTGCCATCGGCTCCACGATCCCCAACCGGAGTCACCTAGTGCAG”, 10700 fluorescence intensity (a.u.); with “TCTATTAATTTGCTACCCTTTCTGCATCACGGCCCTTATTCGGAGTCACCTAGTGCAG”, 8280 fluorescence intensity (a.u.).
In the case of “TGGTTGGGGAGGAGCGCCCATAATTAGAGCCCTGGGATGTCGGAGTCACCTAGTGCAG”, the binding signal is 8480 fluorescence intensity (a.u.).
With “GTGTGTTCAGGTCAGTTCGCGTGCATCGTGTGTGTGTTTGCGGAGTCACCTAGTGCAG” the figure was 8430 fluorescence intensity (a.u.); with “AGCGATGCTGAAAGCGCCGGCCACTCCAACGCCATCACTCCGGAGTCACCTAGTGCAG”, 8370 fluorescence intensity (a.u.).
Consider “GGCGTCATCTAAACTCAAAATATCTTACGGTTGGTTTCTACGGAGTCACCTAGTGCAG”, for which the binding signal is 8510 fluorescence intensity (a.u.).
With “GTGTAGGTCTGGCTCTAGCTGTTGGTGAGGGAAAAAAAAACGGAGTCACCTAGTGCAG” the figure was 9550 fluorescence intensity (a.u.).
For the sequence “TATTAGATTACTTGCCGTGTTGCGATGGTTCAAGCTGTTACGGAGTCACCTAGTGCAG”, the binding signal was 8850 fluorescence intensity (a.u.).
As to “CGATGAGTTCTATAATTTTTTTGTTTATGATTTTTGCATTCGGAGTCACCTAGTGCAG”, the binding signal was 8540 fluorescence intensity (a.u.).
Take “GTTAATGCTATTTATCTCGTTCTCTCATTAAGCCACATCACGGAGTCACCTAGTGCAG”: the binding signal was 9890 fluorescence intensity (a.u.).
As to “CTCATCTCATCATCCACCATCAGTCCGTGCAGTTTGGAGCCGGAGTCACCTAGTGCAG”, the binding signal is 8720 fluorescence intensity (a.u.).
As for “ATCTTTGCTCTTAGCTGCACCGGGTTCCTGGAAGGACCTGCGGAGTCACCTAGTGCAG”, the binding signal is 9270 fluorescence intensity (a.u.).
For the sequence “CAAGAGGTTCTTTGAGAGCTACTCCATCGTTTCAAATTATCGGAGTCACCTAGTGCAG”, the binding signal was 8240 fluorescence intensity (a.u.).
“CACCAACGCGTCCCCACCGTGTCGCCTCCTGATTGGTTGTCGGAGTCACCTAGTGCAG”: the binding signal was 12100 fluorescence intensity (a.u.).
“TCAATAGGTCTTTTTTTTTCCTCCTTCCAAACATCATGAACGGAGTCACCTAGTGCAG”: the binding signal is 9290 fluorescence intensity (a.u.).
In the case of “CTCCAATCCTGCATGAATATATTTGTGCCATTGCTATTTGCGGAGTCACCTAGTGCAG”, the binding signal is 8940 fluorescence intensity (a.u.).
With “TTCAGTCGCCGCGGCGGCGTTGCTGCCGGCGGTGGCGGGGCGGAGTCACCTAGTGCAG”, the binding signal is 8740 fluorescence intensity (a.u.).
Turning to “TGTGTGTGCTACCCCGTCATTGTTGCACTGCCGCCCTTCTCGGAGTCACCTAGTGCAG”, the binding signal is 10200 fluorescence intensity (a.u.).
For “CTCCAACGACTGCCACGATTGCGTCACCATCTTCGTCTTCCGGAGTCACCTAGTGCAG” the value was 10800 fluorescence intensity (a.u.); for “GTTCGTATGCTTTTTTACTTGTTTTGAGTGCAACTGTTTGCGGAGTCACCTAGTGCAG”, 11100 fluorescence intensity (a.u.).
For “CCTCTCCCTTCTCTCTTCTTCGTCCTCACTTCTCTCTTCTCGGAGTCACCTAGTGCAG” the value was 8370 fluorescence intensity (a.u.); for “TATATTGGTGTAAATCGATGTTTGGTACTCCGATCCCGTTCGGAGTCACCTAGTGCAG”, 8340 fluorescence intensity (a.u.); for “ATACAGGTCTCTTTCTTCTTTAATATATACACTGTAAATCCGGAGTCACCTAGTGCAG”, 8450 fluorescence intensity (a.u.).
On to “AGTTCACCACCACCGCCACGCGCGCGCTGTCTCCAAACACCGGAGTCACCTAGTGCAG”, for which the binding signal was 8250 fluorescence intensity (a.u.).
With “GCTGCATATAGTATTCCCACTGACAACCTCTCATACTTGTCGGAGTCACCTAGTGCAG”, the binding signal is 8620 fluorescence intensity (a.u.).
Regarding “TTCCTAAGGTCTCTTCTTTTCTTGCTCTGTTCTGCTGCTTCGGAGTCACCTAGTGCAG”, the binding signal was 8620 fluorescence intensity (a.u.).
Regarding “GGGGAGGGGAGGGGAAGATCTAGAACCGCGGGGAAGACGACGGAGTCACCTAGTGCAG”, the binding signal was 12200 fluorescence intensity (a.u.).
Regarding “AGTGCTGTGGGGAGGCGAACTCACCCTCATATTTAATTCTCGGAGTCACCTAGTGCAG”, the binding signal is 8030 fluorescence intensity (a.u.).
For “ATTATGATTCTGACCTAGCTAGAGCTTACAATCCCATGCCCGGAGTCACCTAGTGCAG” the value was 8760 fluorescence intensity (a.u.).

The values are drawn from paper PMC7819943, “Rice protein-binding microarrays: a tool to detect cis-acting elements near promoter regions in rice”.
